Data taken from PubChem BioAssay AID720504 (National Center for Advancing Translational Sciences (NCATS), 2013).
Among all 360,000 compounds or so, about 10,000 (2.8%) were called active. The shares of active, inactive and inconclusive entries below differ from those in the screen. Calls follow the shape of the dose curve; as a rule, active = well fitted inhibition curve with a large enough effect; inconclusive = small, poorly fitted or top-dose-only effect; inactive = flat fitted curve, though single readings scatter. Potencies beside an inconclusive call are fits to weak or partial responses and may not hold up.

Sequences of proteins named here, by UniProt entry; tags and fusion partners are left off.
UniProt P53350, whole entry, looked up: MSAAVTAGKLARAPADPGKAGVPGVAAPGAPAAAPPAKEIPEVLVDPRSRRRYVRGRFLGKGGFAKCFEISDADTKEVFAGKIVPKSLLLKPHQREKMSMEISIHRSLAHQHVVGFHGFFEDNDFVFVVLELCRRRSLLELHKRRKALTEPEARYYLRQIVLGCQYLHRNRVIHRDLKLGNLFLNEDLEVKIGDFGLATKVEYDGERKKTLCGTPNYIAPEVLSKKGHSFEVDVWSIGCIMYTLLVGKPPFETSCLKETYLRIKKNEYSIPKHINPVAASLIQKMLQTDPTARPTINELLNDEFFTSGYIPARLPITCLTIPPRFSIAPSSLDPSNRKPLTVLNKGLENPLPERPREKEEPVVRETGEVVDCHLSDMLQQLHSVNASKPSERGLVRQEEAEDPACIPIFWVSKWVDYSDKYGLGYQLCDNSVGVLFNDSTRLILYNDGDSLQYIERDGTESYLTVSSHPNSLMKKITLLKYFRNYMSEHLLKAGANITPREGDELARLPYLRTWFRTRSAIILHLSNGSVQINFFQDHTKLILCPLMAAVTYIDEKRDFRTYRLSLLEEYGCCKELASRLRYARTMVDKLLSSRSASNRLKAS

Target: Serine/threonine-protein kinase PLK1 (Homo sapiens) (UniProt P53350)
Experiment: qHTS for Inhibitors of PLK1-PDB (polo-like kinase 1 - polo-box domain): Primary Screen; also: nearly all actives have a fitted effect of over 65% in size; as to max response, negative = inhibition: series mostly up to about 57 µM
Conditions: Plk1 PBD binding of FITC phosphopeptide, fluorescence polarization
% is scaled to controls: 0 for no effect and ±100 for the full control effect; potency is read from the fitted curve at half-maximal effect.

Q: Which max response, negative = inhibition does the source give for O=c1/c(=C\c2cccc(O)c2)sc2nc(-c3ccccc3)c(-c3ccccc3)n12 here?
A: inactive: -0.844%

Q: Which max response, negative = inhibition does the source give for CCOC(=O)c1nc(C)[nH]c1C(=O)OCC here?
A: inactive: -5.42%

Q: How did the Potency turn out when COc1ccc(S(=O)(=O)Nc2ccc(-c3ccc4nncn4n3)cc2)c(OC)c1 was run?
A: active: 18.9 µM

Q: CCOC(=O)C1=C(C)N=c2s/c(=C\c3ccc(OCC(=O)O)cc3)c(=O)n2C1c1ccccc1 (configuration not stated) was tested. Which Potency did it give?
A: inconclusive: 37.7 µM [inhibitor, single point]

Q: For c1cc2c(cc1C1CCCCC1)c1c3n2CCN=C3CCC1, which Potency is on record?
A: inconclusive: 37.7 µM [inhibitor, single point]

Q: For COc1ccccc1-c1c(C)nn2c(N3CCN(c4ccccc4OC)CC3)cc(C)nc12, which Potency is on record?
A: active: 21.2 µM

Q: Which Potency does the source give for COc1ccccc1NS(=O)(=O)c1cc(NC(=O)C2CCCC2)ccc1N1CCOCC1 here?
A: active: 15 µM

Q: For CCOC(=O)CC(=O)CSc1ncnc2c1nnn2-c1ccccc1, which max response, negative = inhibition is on record?
A: inactive: -4.62%

Q: With O=C(c1ccncc1)N(c1ccc(N2CCOCC2)cc1)C(c1ccccc1)c1nc2ccccc2[nH]1 (configuration not stated) as the compound, how does the Potency read?
A: inconclusive: 26.7 µM [inhibitor, single point]

Q: How did the Potency turn out when Cc1cc(C)n2nc(SCC(=O)Nc3ccc(F)cc3)nc2n1 was run?
A: inconclusive: 37.7 µM [inhibitor, single point]

Q: For COc1ccc2c(c1OC)C(=O)N1C2SC[C@H]1C(=O)NC1CCCC1 (some centres not stated), which max response, negative = inhibition is on record?
A: inconclusive: -30.3% [inhibitor]

Q: For CCOC(=O)C(C)Sc1nc2c(c(=O)[nH]c(=O)n2C)n1Cc1ccc(Cl)cc1 (configuration not stated), which Potency is on record?
A: active: 21.2 µM

Q: For CCOC(=O)c1c(NS(C)(=O)=O)sc2c1CCC(C)C2 (configuration not stated), which Potency is on record?
A: inconclusive: 26.7 µM [inhibitor, partial curve]

Q: For CC(=O)CC1OC(=O)C(Br)=C1NCc1ccccc1 (configuration not stated), which Potency is on record?
A: active: 26.7 µM

Q: With c1ccc2c(-c3nn4nnnc4c4ccccc34)cccc2c1 as the compound, how does the Potency read?
A: inconclusive: 18.9 µM [inhibitor, partial curve]

Q: For CN1c2ccccc2N(C)C1(C)c1ccccc1, which Potency is on record?
A: active: 4.23 µM

Q: With CCCN1CCC(=O)N([C@H](CSc2ccc(OC)cc2)c2ccccc2)CC1 as the compound, how does the Potency read?
A: inconclusive: 18.9 µM [inhibitor, partial curve]

Q: O=C(O)CC1CC(O)CCC1=O (configuration not stated) was tested. Which max response, negative = inhibition did it give?
A: inactive: -9.41%

Q: For CCOC(=O)c1c(NC(=O)c2ccccc2)sc2c1CCc1ccccc1-2, which Potency is on record?
A: active: 6.7 µM

Q: With O=[N+]([O-])c1ccc(N2CCCC2)cc1NC1CC1 as the compound, how does the max response, negative = inhibition read?
A: inactive: 1.44%

Q: For COc1ccc(/C=N/NC(=O)c2ccc(N(C)S(=O)(=O)c3ccccc3)cc2)cc1, which max response, negative = inhibition is on record?
A: inconclusive: -18.4% [inhibitor]

Q: How did the Potency turn out when O=C1OC(c2ccccc2)=N/C1=C/c1cccc(OC(=O)c2cccs2)c1 was run?
A: inconclusive: 18.9 µM [inhibitor, partial curve]

Q: COCCn1nnnc1C(c1cccs1)N1CCN(c2cc(C)ccc2C)CC1 (configuration not stated) was tested. Which max response, negative = inhibition did it give?
A: inactive: -29.3%

Q: Cc1ccc(NC(=S)N/N=C/c2ccc([N+](=O)[O-])s2)cc1 was tested. Which max response, negative = inhibition did it give?
A: inactive: -3.6%

Q: Cc1c(C(=O)O)sc2nc(-c3cccs3)cc(C(F)(F)F)c12 was tested. Which Potency did it give?
A: inconclusive: 26.7 µM [inhibitor, single point]

Q: Which Potency does the source give for O=C(O)/C=C\C(=O)Nc1cc(O)ccc1[N+](=O)[O-] here?
A: inconclusive: 23.8 µM [inhibitor, single point]

Q: COc1cc(CN2CCC(CO)(CCOc3ccccc3)CC2)cc(OC)c1OC was tested. Which max response, negative = inhibition did it give?
A: inactive: -0.321%

Q: For CCN(CC)CCN1CCn2c3c(c4cc(C)ccc42)CCCC31 (configuration not stated), which Potency is on record?
A: inconclusive: 5.97 µM [inhibitor, partial curve]

Q: Cc1nn(C)c(C)c1N1C(=O)c2cccc3c(N)ccc(c23)C1=O was tested. Which Potency did it give?
A: active: 2.67 µM

Q: C#CCOc1ccc(CNC[C@H]2O[C@@H](n3cnc4c(N)ncnc43)[C@H](O)[C@@H]2O)cc1 was tested. Which Potency did it give?
A: inconclusive: 37.7 µM [inhibitor, single point]

Q: With COc1ccccc1CNCC(=O)N1CC(=O)Nc2ccccc21 as the compound, how does the Potency read?
A: inconclusive: 16.8 µM [inhibitor, single point]

Q: CS(=O)(=O)N1CCC(C(=O)Nc2c(F)cccc2F)CC1 was tested. Which Potency did it give?
A: inconclusive: 23.8 µM [inhibitor, single point]

Q: O=[N+]([O-])c1ccccc1S(=O)(=O)NCc1cccnc1 was tested. Which Potency did it give?
A: active: 26.7 µM

Q: With C=CCC(CC=C)(NC(=O)c1ccccc1)c1ccccc1 as the compound, how does the Potency read?
A: inconclusive: 23.8 µM [inhibitor, single point]

Q: With Cc1ccc(S(=O)(=O)n2nc(OC(=O)c3ccco3)cc2N)cc1 as the compound, how does the Potency read?
A: inconclusive: 13.4 µM [inhibitor, partial curve]

Q: How did the max response, negative = inhibition turn out when O=C(O)/C=C\c1cc2c(cc1[N+](=O)[O-])OCO2 was run?
A: inactive: -0.809%

Q: How did the max response, negative = inhibition turn out when COc1cccc(NC(=O)C2CC2)c1 was run?
A: inactive: 0.312%

Q: Which max response, negative = inhibition does the source give for COc1ccc(/C=C2\SC(=S)N(CCC(=O)NC3CCCC3)C2=O)cc1OC here?
A: inactive: -6.19%

Q: With CC(C)(C)c1ccc(OCC(=O)Nc2ccc(C(=O)Nc3ccccc3C(=O)O)cc2)cc1 as the compound, how does the Potency read?
A: inconclusive: 33.6 µM [inhibitor, single point]

Q: For Cc1ccc(Cc2c(-c3ccco3)nc3ccc(Br)cn23)cc1, which Potency is on record?
A: inconclusive: 26.7 µM [inhibitor, partial curve]

Q: With COC(OC)c1ccc(C#N)c(SCc2ccccc2)n1 as the compound, how does the max response, negative = inhibition read?
A: inactive: 5.24%

Q: N#CC1(C#N)C(c2ccccc2)OC23CCCCC2C1(C#N)C(=N)O3 (configuration not stated) was tested. Which Potency did it give?
A: inconclusive: 13.4 µM [inhibitor, partial curve]

Q: With CC(=C\c1ccccc1)/C=C1/SC(=S)N(CCCC(=O)O)C1=O as the compound, how does the Potency read?
A: inconclusive: 21.2 µM [inhibitor, single point]

Q: For Cn1c2ccccc2c2cnn(CC(=O)O)c(=O)c21, which max response, negative = inhibition is on record?
A: inactive: -3.91%

Q: Which Potency does the source give for COc1cccc(C2CC(c3cccs3)=NN2C(=O)CSc2nc3c(cnn3-c3ccc(F)cc3)c(=O)[nH]2)c1OC (configuration not stated) here?
A: inconclusive: 21.2 µM [inhibitor, single point]

Q: CCc1nnc(NS(=O)(=O)c2ccc(N=Cc3c(C)[nH]n(-c4cccc(Cl)c4)c3=O)cc2)s1 was tested. Which Potency did it give?
A: inconclusive: 29.9 µM [inhibitor, single point]

Q: Which Potency does the source give for CN1C(=O)/C(=C/c2ccc(C(=O)Nc3ccc(O)cc3C(=O)O)cc2)SC1=S here?
A: inconclusive: 26.7 µM [inhibitor, single point]

Q: How did the Potency turn out when Cc1ccc(S(=O)(=O)Nc2nc3ccc(S(=O)(=O)N4CCCC4)cc3s2)cc1 was run?
A: inconclusive: 28.2 µM [inhibitor, single point]

Q: For CCOC(=O)C1CCCN(C(=O)CN2C(=O)c3ccccc3S2(=O)=O)C1 (configuration not stated), which max response, negative = inhibition is on record?
A: inactive: 1.85%

Q: For CNC(=O)c1ccsc1NC(=O)CCS(=O)(=O)c1ccc(C)cc1, which max response, negative = inhibition is on record?
A: inactive: -9.28%

Q: Cc1ccc(/C=C2\SC(=S)N(CCCC(=O)Nc3ccccc3C(=O)O)C2=O)cc1 was tested. Which Potency did it give?
A: active: 18.9 µM

Q: With O=C1NC(Cc2c[nH]c3ccccc23)C(=O)N1CCOc1ccc(F)cc1 (configuration not stated) as the compound, how does the Potency read?
A: inconclusive: 26.7 µM [inhibitor, partial curve]

Q: With CCCCCNC(=O)C(c1ccccc1F)n1c(=O)c(-c2ccco2)nc2ccccc21 (configuration not stated) as the compound, how does the Potency read?
A: inconclusive: 13.4 µM [inhibitor, partial curve]

Q: Cc1noc(NS(=O)(=O)c2ccc(NC(=O)COc3ccc(Cl)cc3Cl)cc2)c1C was tested. Which Potency did it give?
A: inconclusive: 29.9 µM [inhibitor, partial curve]

Q: How did the Potency turn out when CCCCn1nnc(NC(=O)c2ccc([N+](=O)[O-])cc2Cl)n1 was run?
A: inconclusive: 26.7 µM [inhibitor, partial curve]

Q: For C=C1N(C)c2cc([N+](=O)[O-])c(N)cc2C1(C)C, which Potency is on record?
A: inconclusive: 37.7 µM [inhibitor, single point]

Q: Which Potency does the source give for Oc1ccc(CN2CCN(Cc3ccccc3)CC2)c2cccnc12 here?
A: inconclusive: 23.8 µM [inhibitor, single point]

Q: Which Potency does the source give for Cc1nnc(NC(=O)C2c3ccccc3Oc3ccccc32)s1 here?
A: active: 21.2 µM

Q: How did the Potency turn out when CCc1nn(CCCC(=O)NCc2ccccc2C)c(=O)c2cc3occc3n12 was run?
A: inconclusive: 26.7 µM [inhibitor, single point]

Q: Cc1cc(C)n2c(SCc3nnc(-c4cccs4)o3)nnc2n1 was tested. Which max response, negative = inhibition did it give?
A: inconclusive: -31.9% [inhibitor]

Q: O=c1[nH]n(-c2ccc([N+](=O)[O-])cc2)c(=O)c2ccccc12 was tested. Which Potency did it give?
A: inconclusive: 16.8 µM [inhibitor, partial curve]

Q: Which Potency does the source give for COc1ccc(OC)c(NC(=O)CN2CCN(C(=O)c3ccco3)CC2)c1 here?
A: inconclusive: 11.9 µM [inhibitor, partial curve]

Q: For COc1ccc(S(=O)(=O)Nc2ccc3c(c2)N(C(C)=O)CCC3)cc1OC, which max response, negative = inhibition is on record?
A: inactive: 3.28%

Q: Cc1cc(NC(=O)CSc2nnc(Nc3ccccc3C)s2)no1 was tested. Which Potency did it give?
A: active: 21.2 µM

Q: Which max response, negative = inhibition does the source give for COc1cc(NC(=O)Cn2ccsc2=N)cc(OC)c1 here?
A: inactive: -1.33%

Q: For O=C(O)C(Cc1ccccc1)n1c(=S)[nH]c2ccccc2c1=O (configuration not stated), which Potency is on record?
A: inconclusive: 21.2 µM [inhibitor, single point]

Q: C/C(=N\NC(=O)c1cccc(S(=O)(=O)N2CCCC2)c1)c1cccs1 was tested. Which Potency did it give?
A: active: 26.7 µM

Q: With CCCCOc1nc2ccccc2nc1C(C#N)S(=O)(=O)c1ccccc1 (configuration not stated) as the compound, how does the Potency read?
A: inconclusive: 21.2 µM [inhibitor, single point]

Q: O=C(Cc1ccccc1)N/N=C/c1ccc([N+](=O)[O-])s1 was tested. Which max response, negative = inhibition did it give?
A: inactive: -9.61%

Q: O=C(CNC(=O)c1ccco1)NCc1ccc2c(c1)OCO2 was tested. Which max response, negative = inhibition did it give?
A: inactive: -6.06%

Q: How did the max response, negative = inhibition turn out when CN(C)S(=O)(=O)c1cccc(NC(=O)c2cccc(N3C(=O)CCC3=O)c2)c1 was run?
A: inactive: -4.42%

Q: O=C(/C=C/c1ccc([N+](=O)[O-])cc1)Nc1cccc(C(=O)Nc2ccccc2C(=O)O)c1 was tested. Which Potency did it give?
A: inconclusive: 21.2 µM [inhibitor, single point]
